## Drug screen on melanoma cell lines: cell count

Values as published with doi:10.1371/journal.pone.0140310, rounded.

Drugs:
A-769662 (2000 nM): N#Cc1c(O)c2c(-c3ccc(-c4ccccc4O)cc3)csc2[nH]c1=O
stibogluconate (2000 nM): O=C(O)[C@@H]1[O][Sb](=[O])([O][Sb]2(=[O])[O][C@H]([C@H](O)CO)[C@H](O)[C@H](C(=O)O)[O]2)[O][C@H]([C@H](O)CO)[C@@H]1O (stereo partly specified)
ZM336372 (2000 nM): Cc1ccc(NC(=O)c2cccc(N(C)C)c2)cc1NC(=O)c1ccc(O)cc1
ABT-263 (400 nM): CC1(C)CCC(c2ccc(Cl)cc2)=C(CN2CCN(c3ccc(C(=O)NS(=O)(=O)c4ccc(N[C@H](CCN5CCOCC5)CSc5ccccc5)c(S(=O)(=O)C(F)(F)F)c4)cc3)CC2)C1
darinaparsin (400 nM): C[As](C)SC[C@H](NC(=O)CC[C@H](N)C(=O)O)C(=O)NCC(=O)O
BI-78D3 (200 nM): O=c1[nH]nc(Sc2ncc([N+](=O)[O-])s2)n1-c1ccc2c(c1)OCCO2
ruxolitinib (1000 nM): N#CC[C@H](C1CCCC1)n1cc(-c2ncnc3[nH]ccc23)cn1
temozolomide (2000 nM): Cn1nnc2c(C(N)=O)ncn2c1=O
YM155 (0.4 nM): COCC[n+]1c2c(n(Cc3cnccn3)c1C)C(=O)c1ccccc1C2=O
bortezomib (1 nM): CC(C)C[C@H](NC(=O)[C@H](Cc1ccccc1)NC(=O)c1cnccn1)B(O)O
vincristine (0.1 nM): CC[C@]1(O)C[C@H]2CN(CCc3c([nH]c4ccccc34)[C@@](C(=O)OC)(c3cc4c(cc3OC)N(C=O)[C@H]3[C@@](O)(C(=O)OC)[C@H](OC(C)=O)[C@]5(CC)C=CCN6CC[C@]43[C@@H]65)C2)C1
NVP-TAE684 (80 nM): COc1cc(N2CCC(N3CCN(C)CC3)CC2)ccc1Nc1ncc(Cl)c(Nc2ccccc2S(=O)(=O)C(C)C)n1
lenalidomide (1000 nM): Nc1cccc2c1CN(C1CCC(=O)NC1=O)C2=O (stereo unspecified)
sorafenib (400 nM): CNC(=O)c1cc(Oc2ccc(NC(=O)Nc3ccc(Cl)c(C(F)(F)F)c3)cc2)ccn1
GW2580 (1000 nM): COc1ccc(COc2ccc(Cc3cnc(N)nc3N)cc2OC)cc1
palbociclib (40 nM): CC(=O)c1c(C)c2cnc(Nc3ccc(N4CCNCC4)cn3)nc2n(C2CCCC2)c1=O
docetaxel (0.1 nM): CC(=O)O[C@@]12CO[C@@H]1C[C@H](O)[C@@]1(C)C(=O)[C@H](O)C3=C(C)[C@@H](OC(=O)[C@H](O)[C@@H](NC(=O)OC(C)(C)C)c4ccccc4)C[C@@](O)([C@@H](OC(=O)c4ccccc4)[C@H]21)C3(C)C
GSK650394 (160 nM): O=C(O)c1ccc(-c2c[nH]c3ncc(-c4ccccc4)cc23)cc1C1CCCC1
AZD7762 (20 nM): NC(=O)Nc1cc(-c2cccc(F)c2)sc1C(=O)N[C@H]1CCCNC1

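Human melanoma cells were exposed to two drugs together for 72 h in 1,536-well plates and read by automated microscopy after fixing and staining. Each value is the count of nuclei relative to DMSO-treated wells, in %, so that 100 equals the control. Concentrations were fixed for each drug; these are the lower of two levels, a fifth of the higher. The file gives one value for each pair and line, without errors, so small differences may be noise.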
Only some of the drugs and lines screened are listed, without regard to their results.
A dash means that no value is listed here.

Pair	COLO 792	IST-MEL1	LOX IMVI	A101D	A375	IPC-298	501mel	MEL-HO	COLO 800	COLO 829	C32	G-361	LB2518-MEL	A2058
BI-78D3 + darinaparsin	98.5	94.7	64.5	85.2	93.6	99.1	-	101	90.9	78.3	101	98.6	102	101
temozolomide + A-769662	117	95.2	112	95.3	103	108	88.7	97.1	132	103	103	112	111	93.7
bortezomib + ABT-263	46.4	70.5	79.4	5.9	78.8	79.1	-	65.9	67.3	75.2	39.3	5.7	29.4	87.2
docetaxel + ZM336372	37.6	70.0	60.8	63.2	30.1	63.3	-	59.3	37.6	52.4	75.9	28.6	72.7	10.2
bortezomib + ruxolitinib	102	97.0	69.7	66.5	98.0	95.7	-	84.1	99.2	98.3	98.1	76.2	92.7	89.8
palbociclib + AZD7762	64.1	88.0	62.5	75.0	47.9	96.0	-	86.8	98.2	109	72.5	77.0	92.1	121
stibogluconate + YM155	107	98.9	68.9	94.0	79.2	95.3	-	97.6	96.8	98.4	108	103	98.2	77.4
A-769662 + ZM336372	88.4	98.1	198	93.6	98.0	77.7	70.1	84.6	82.7	93.7	104	106	102	93.1
NVP-TAE684 + AZD7762	86.7	110	71.4	84.3	52.8	107	93.8	104	69.3	102	90.2	102	118	106
vincristine + temozolomide	118	96.2	101	59.9	71.5	94.7	-	122	107	78.4	95.0	104	103	35.7
vincristine + BI-78D3	101	107	73.9	74.8	71.3	90.9	-	99.3	168	99.2	75.0	95.7	103	43.3
NVP-TAE684 + temozolomide	91.1	86.5	122	116	70.2	103	110	90.2	78.0	91.6	95.0	90.2	122	63.6
GW2580 + AZD7762	88.3	105	91.2	93.2	38.1	109	91.7	109	89.5	110	100	106	136	103
ruxolitinib + stibogluconate	101	91.6	82.2	120	120	96.7	-	95.5	116	120	97.2	98.8	134	89.1
A-769662 + lenalidomide	93.9	91.4	97.6	126	86.9	102	106	121	82.2	92.8	78.6	103	101	97.9
stibogluconate + ABT-263	56.2	75.1	27.7	44.2	57.2	86.0	-	78.3	64.6	92.0	45.8	72.2	81.4	89.3
bortezomib + vincristine	117	88.6	60.3	30.8	75.4	71.9	-	85.0	124	60.0	80.0	13.2	51.0	35.5
sorafenib + ABT-263	90.7	71.4	30.4	48.7	65.9	96.6	-	67.3	75.3	105	37.6	64.5	88.8	85.2
A-769662 + GSK650394	103	101	81.9	108	99.8	107	99.9	98.0	136	87.2	98.8	91.7	110	93.2
palbociclib + GSK650394	69.5	80.9	94.0	82.0	55.4	82.7	-	87.7	70.9	91.6	60.9	70.8	79.0	103
GW2580 + BI-78D3	87.5	87.1	97.7	105	-	105	93.9	90.6	82.3	75.8	102	76.7	105	103
ABT-263 + lenalidomide	66.7	74.8	40.4	53.6	91.6	99.0	-	74.8	48.3	101	66.4	119	-	100
YM155 + A-769662	108	84.0	80.5	99.8	89.2	92.9	99.2	103	165	98.3	113	102	93.2	88.0
sorafenib + docetaxel	31.7	55.2	83.6	63.3	22.9	54.6	-	50.7	25.8	43.9	95.3	20.9	58.5	7.3
darinaparsin + lenalidomide	109	102	153	112	94.4	99.8	-	97.4	120	89.9	103	108	95.1	110
docetaxel + AZD7762	37.1	63.3	68.9	80.7	15.5	65.4	-	60.9	26.4	43.5	89.2	29.1	77.5	10.0
ruxolitinib + ABT-263	85.5	71.4	53.2	58.3	89.2	94.1	-	84.7	75.2	85.6	79.2	75.8	116	87.0
docetaxel + ABT-263	17.1	52.7	25.7	44.9	18.0	63.0	-	43.6	35.4	50.0	29.8	24.8	57.3	7.7
sorafenib + vincristine	125	91.1	68.2	61.9	88.7	88.0	-	97.2	99.4	64.8	81.1	116	87.6	12.4